Values quoted from earlier work, collected in patent publication US20200085021A1, “MODEL SYSTEM FOR MITOCHONDRIAL DYSFUNCTION AND METHODS OF USING THE SAME” (The UAB Research Foundation, priority 2018, published 2020).
For at least one compound, name, drawing or mass did not settle the structure.

Test system: Tet-system (tetracycline response element / Tet-transactivator)
Details: inducer compound of the tetracycline-regulated gene expression system

For `C[C@H]1c2cccc(O)c2C(=O)C2=C(O)[C@]3(O)C(=O)C(C(N)=O)=C(O)[C@@H](N(C)C)[C@@H]3[C@@H](O)[C@@H]21` [Doxycycline, doxycycline], the “concentration for complete activation or inactivation” value is listed as 0.01 to 1 µg/mL.
In the case of `CN(C)[C@@H]1C(O)=C(C(N)=O)C(=O)[C@@]2(O)C(O)=C3C(=O)c4c(O)cccc4[C@@](C)(O)[C@H]3C[C@@H]12` [tetracycline], the “concentration for complete activation or inactivation” value is listed as 1 to 2 µg/mL.
